{"sequences": {"note": "By UniProt entry, the sequences of proteins in these tests, tags left out. Where a name states a change or a piece, a line headed by the entry shows the natural chain unless it says otherwise.", "UniProt Q99816": "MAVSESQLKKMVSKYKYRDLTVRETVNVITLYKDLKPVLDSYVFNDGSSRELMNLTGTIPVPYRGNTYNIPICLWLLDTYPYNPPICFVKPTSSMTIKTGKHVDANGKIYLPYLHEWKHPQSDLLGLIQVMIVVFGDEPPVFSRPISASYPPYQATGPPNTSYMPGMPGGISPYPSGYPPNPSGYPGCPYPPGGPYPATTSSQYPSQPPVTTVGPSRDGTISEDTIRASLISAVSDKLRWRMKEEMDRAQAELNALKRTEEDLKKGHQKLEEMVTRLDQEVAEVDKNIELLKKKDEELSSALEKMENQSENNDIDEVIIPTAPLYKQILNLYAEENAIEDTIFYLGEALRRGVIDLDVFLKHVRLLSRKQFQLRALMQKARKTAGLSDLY", "UniProt Q9UN37": "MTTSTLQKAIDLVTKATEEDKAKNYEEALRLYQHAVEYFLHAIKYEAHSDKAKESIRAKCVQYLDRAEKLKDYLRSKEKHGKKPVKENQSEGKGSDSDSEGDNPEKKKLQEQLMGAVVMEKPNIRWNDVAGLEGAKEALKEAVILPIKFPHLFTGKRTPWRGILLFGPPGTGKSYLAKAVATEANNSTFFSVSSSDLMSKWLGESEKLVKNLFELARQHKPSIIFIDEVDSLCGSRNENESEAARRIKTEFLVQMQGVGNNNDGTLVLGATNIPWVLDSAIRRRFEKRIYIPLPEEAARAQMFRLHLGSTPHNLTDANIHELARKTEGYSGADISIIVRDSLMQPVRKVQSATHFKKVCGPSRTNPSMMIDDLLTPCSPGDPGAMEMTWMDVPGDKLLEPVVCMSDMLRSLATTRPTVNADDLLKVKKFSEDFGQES", "UniProt Q8WUM4": "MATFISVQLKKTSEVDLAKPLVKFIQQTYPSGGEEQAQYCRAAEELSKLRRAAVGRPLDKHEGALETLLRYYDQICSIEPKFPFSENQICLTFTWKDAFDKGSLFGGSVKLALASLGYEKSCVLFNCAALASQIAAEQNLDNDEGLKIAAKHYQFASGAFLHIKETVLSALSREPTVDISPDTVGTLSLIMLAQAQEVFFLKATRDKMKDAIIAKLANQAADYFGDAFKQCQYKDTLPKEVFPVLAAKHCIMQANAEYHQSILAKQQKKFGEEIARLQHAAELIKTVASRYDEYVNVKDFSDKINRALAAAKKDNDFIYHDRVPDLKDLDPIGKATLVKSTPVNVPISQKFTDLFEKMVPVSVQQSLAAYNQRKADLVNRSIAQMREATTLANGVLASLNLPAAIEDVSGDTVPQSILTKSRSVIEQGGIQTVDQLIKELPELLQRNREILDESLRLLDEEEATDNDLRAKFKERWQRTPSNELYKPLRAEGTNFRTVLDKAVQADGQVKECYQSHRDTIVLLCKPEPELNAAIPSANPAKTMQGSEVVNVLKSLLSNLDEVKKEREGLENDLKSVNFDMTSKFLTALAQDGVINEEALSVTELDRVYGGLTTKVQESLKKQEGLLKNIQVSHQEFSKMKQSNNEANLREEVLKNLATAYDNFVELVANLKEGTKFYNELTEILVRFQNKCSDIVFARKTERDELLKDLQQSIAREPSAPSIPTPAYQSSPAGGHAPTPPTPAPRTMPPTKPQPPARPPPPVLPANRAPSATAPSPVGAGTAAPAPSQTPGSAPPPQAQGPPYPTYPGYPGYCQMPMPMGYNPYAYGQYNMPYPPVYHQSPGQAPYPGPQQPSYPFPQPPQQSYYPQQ"}, "source": "paper PMC3435242", "key": {"[1]": {"target": "T1, HA-BFRF1 (Epstein-Barr virus) (UniProt P03185)", "T1 sequence": "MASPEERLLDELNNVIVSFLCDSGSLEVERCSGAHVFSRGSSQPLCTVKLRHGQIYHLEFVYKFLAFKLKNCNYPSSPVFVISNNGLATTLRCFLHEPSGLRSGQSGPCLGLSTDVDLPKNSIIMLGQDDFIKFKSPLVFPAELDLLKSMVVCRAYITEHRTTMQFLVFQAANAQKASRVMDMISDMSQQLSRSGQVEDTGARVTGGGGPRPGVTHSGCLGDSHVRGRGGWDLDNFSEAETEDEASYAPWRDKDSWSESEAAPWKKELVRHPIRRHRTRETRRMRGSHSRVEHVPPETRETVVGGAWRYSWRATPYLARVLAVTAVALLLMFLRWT", "assay": "co-IP; lysates of transfected HeLa cells in RIPA buffer, 24 h post transfection; immunoprecipitated with anti-HA, anti-GFP or anti-Alix, anti-GST as control; protein A-Sepharose, 4°C; immunoblot; for BFRF1 and Alix also with co-expressed GFP-Chmp4b and mCherry-Vps4-DN (more Alix found)"}, "[2]": {"target": "HA-BFRF1d(314-336) (Epstein-Barr virus) (UniProt P03185)", "assay": "co-IP; lysates of transfected HeLa cells in RIPA buffer, 24 h post transfection; immunoprecipitated with anti-HA, anti-GFP or anti-Alix, anti-GST as control; protein A-Sepharose, 4°C; immunoblot; for BFRF1 and Alix also with co-expressed GFP-Chmp4b and mCherry-Vps4-DN (more Alix found)"}, "GFP-Chmp4b [3]": {"target": "T2, GFP-Chmp4b (UniProt Q9H444)", "T2 sequence": "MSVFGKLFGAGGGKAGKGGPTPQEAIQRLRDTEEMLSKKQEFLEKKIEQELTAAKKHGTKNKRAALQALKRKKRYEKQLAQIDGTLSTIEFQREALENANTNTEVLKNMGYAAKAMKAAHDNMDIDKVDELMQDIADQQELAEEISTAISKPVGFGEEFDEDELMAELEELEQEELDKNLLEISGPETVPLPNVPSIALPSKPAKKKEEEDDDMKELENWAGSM", "assay": "co-IP; lysates of transfected HeLa cells in RIPA buffer, 24 h post transfection; immunoprecipitated with anti-HA, anti-GFP or anti-Alix, anti-GST as control; protein A-Sepharose, 4°C; immunoblot; for BFRF1 and Alix also with co-expressed GFP-Chmp4b and mCherry-Vps4-DN (more Alix found)"}, "[4]": {"target": "T1, HA-BFRF1 (Epstein-Barr virus)", "assay": "co-IP; lysates of transfected HeLa cells in RIPA buffer, 24 h post transfection; immunoprecipitated with anti-HA, anti-GFP or anti-Alix, anti-GST as control; protein A-Sepharose, 4°C; immunoblot; for BFRF1 and Alix also with co-expressed GFP-Chmp4b and mCherry-Vps4-DN (more Alix found)", "remark": "listed apart in the source"}, "GFP-Chmp4b [5]": {"target": "T2, GFP-Chmp4b", "assay": "co-IP; lysates of transfected HeLa cells in RIPA buffer, 24 h post transfection; immunoprecipitated with anti-HA, anti-GFP or anti-Alix, anti-GST as control; protein A-Sepharose, 4°C; immunoblot; for BFRF1 and Alix also with co-expressed GFP-Chmp4b and mCherry-Vps4-DN (more Alix found)", "remark": "listed apart in the source"}, "[6]": {"target": "TSG101 (tumor susceptibility gene 101) (human (endogenous in HeLa or NA cells)) (UniProt Q99816)", "assay": "co-IP; data not shown; immunoprecipitated with TSG101 antibody; cells co-expressing HA-BFRF1 and Flag-BFLF2, or BFRF1 alone; cell line not named"}}, "note": "Read-outs that look alike come from different tables or passages of the source. Results are given in words; binding and its absence hold for the method and conditions named. In cells and extracts the contact can be indirect. Some binding calls cover weakened binding; strength is not graded here. For part of these data: Tags and fused reporters may be left off the sequences shown.", "data": [{"molecule": "mCherry-Vps4-DN (Vps4A E228Q) (from UniProt Q9UN37 1-437) (enzyme)", "values": [{"measurement": "binding", "setting": "[1]", "value": "binds"}]}, {"molecule": "Flag-Alix_V (from UniProt Q8WUM4 362-705) (domain or fragment)", "values": [{"measurement": "binding", "setting": "[1]", "value": "no binding"}]}, {"molecule": "Flag-Alix_PRR (from UniProt Q8WUM4 717-868) (domain or fragment)", "values": [{"measurement": "binding", "setting": "[1]", "value": "binds"}]}, {"molecule": "Flag-Alix_Bro (from UniProt Q8WUM4 1-358) (domain or fragment)", "values": [{"measurement": "binding", "setting": "[1]", "value": "binds"}]}, {"molecule": "Alix (apoptosis linked gene-2 interacting protein X), endogenous in HeLa (from UniProt Q8WUM4 1-868)", "values": [{"measurement": "binding", "setting": "[2]", "value": "binds"}, {"measurement": "binding", "setting": "GFP-Chmp4b [3]", "value": "binds weakly"}]}, {"molecule": "HA-BFRF1 (protein, UniProt P03185 1-336) MASPEERLLDELNNVIVSFLCDSGSLEVERCSGAHVFSRGSSQPLCTVKLRHGQIYHLEFVYKFLAFKLKNCNYPSSPVFVISNNGLATTLRCFLHEPSGLRSGQSGPCLGLSTDVDLPKNSIIMLGQDDFIKFKSPLVFPAELDLLKSMVVCRAYITEHRTTMQFLVFQAANAQKASRVMDMISDMSQQLSRSGQVEDTGARVTGGGGPRPGVTHSGCLGDSHVRGRGGWDLDNFSEAETEDEASYAPWRDKDSWSESEAAPWKKELVRHPIRRHRTRETRRMRGSHSRVEHVPPETRETVVGGAWRYSWRATPYLARVLAVTAVALLLMFLRWT", "values": [{"measurement": "binding", "setting": "[4]", "value": "binds"}, {"measurement": "binding", "setting": "GFP-Chmp4b [5]", "value": "binds weakly"}]}, {"molecule": "Flag-BFLF2 (protein, UniProt P0CK47 1-318) MAPVTPDAVNARQQRPADPALRRLMHPHHRNYTASKASAHSVKSVSRCGKSRSELGRMERVGSVARSICSRHTRHGVDRSHFSLRDFFRGISANFELGKDFLREMNTPIHVSEAVFLPLSLCTLSPGRCLRLSPFGHSLTLGSHCEICINRSQVHVPQEFSSTQLSFFNNVHKIIPNKTFYVSLLSSSPSAVKAGLSQPSLLYAYLVTGHFCGTICPIFSTNGKGRLIMHLLLQGTSLHIPETCLKLLCENIGPTYELAVDLVGDAFCIKVSPRDTVYEKAVNVDEDAIYEAIKDLECGDELRLQIINYTQLILENKQ", "values": [{"measurement": "binding", "setting": "[6]", "value": "binds"}]}]}
